Earlier results, collected in patent publication US20090030504A1, “Medical devices comprising porous inorganic fibers for the release of therapeutic agents” (Boston Scientific Scimed, Inc., priority 2007, published 2009).
≈ marks a conversion by molar mass, not a printed value. Like-named read-outs stand apart in the source and are kept apart here.

solubility (in DMSO): ~500 mg/mL (≈ 586 mM)
solubility (in methanol): ~100 mg/mL (≈ 117 mM)
Compound: CC(=O)O[C@H]1C(=O)[C@@]2(C)[C@H]([C@H](OC(=O)c3ccccc3)[C@]3(O)C[C@H](OC(=O)[C@H](O)[C@@H](NC(=O)c4ccccc4)c4ccccc4)C(C)=C1C3(C)C)[C@]1(OC(C)=O)CO[C@@H]1C[C@@H]2O [paclitaxel]
